Source: PMC10907630

How the values were obtained:
[1] = system: PG-ptau (tau 1N4R phosphorylated by PKA and GSK-3β); experiment: EMSA; details: 10 mM NaCl; EMSA: 20 nM DNA or nucleosome, 20 mM HEPES pH 7.2, 10 mM NaCl (or 150), 0.5 mM TCEP, 0.1% Tween-20, 5% sucrose, room temperature 20 min; recombinant protein; label: 5' 6-FAM on strand 1
[2] = system: PG-ptau (tau 1N4R phosphorylated by PKA and GSK-3β); experiment: fluorescence anisotropy; details: 10 mM NaCl; FA: 10 nM DNA, same buffer with 10 mM NaCl, 0.01% NP-40 substitute, room temperature 10 min; recombinant protein; label: 5' 6-FAM on strand 1

“ATTTAGAAATGTCCACTGTAGG (double strand) [22 bp DNA]” showed a pKd [1] of 6.22 and a pKd [2] of 7.12.

pKd: −log10 of the molar value. The exact form of at least one protein or probe is not confirmed.
